Measurements: patent US8268807B2, “Compositions and method for the treatment of multiple myeloma” (SRI International, priority 2010, dated 2012)
Entries after “also recorded” stand apart in the source; their conditions may differ. For at least one compound, name, drawing or mass did not settle the structure.

What was measured:
[1] = tested on: RPMI-8226 and U266 MM cell lines; experiment: IL-6 induced proliferation of MM cell lines (MTT); type: cell-based, human; conditions: 10 ng/ml IL-6, 72 h, nanomolar concentrations
RPMI-8226 cells [2] = experiment: Cell cycle analysis of RPMI-8226 cells (propidium iodide, flow cytometry); type: cell-based, human; conditions: 0.5 μM, 48 hours
RPMI-8226 cells [3] = experiment: Apoptosis by Annexin V-FITC/PI flow cytometry, RPMI-8226; type: cell-based, human; conditions: 0.5 or 2.0 μM, 24 h
ERR-α = target: T1, ERR-α (Homo sapiens, UniProt P11474); experiment: Binding to ERR-α (stated only, no method)
T1 sequence (P11474 1-423): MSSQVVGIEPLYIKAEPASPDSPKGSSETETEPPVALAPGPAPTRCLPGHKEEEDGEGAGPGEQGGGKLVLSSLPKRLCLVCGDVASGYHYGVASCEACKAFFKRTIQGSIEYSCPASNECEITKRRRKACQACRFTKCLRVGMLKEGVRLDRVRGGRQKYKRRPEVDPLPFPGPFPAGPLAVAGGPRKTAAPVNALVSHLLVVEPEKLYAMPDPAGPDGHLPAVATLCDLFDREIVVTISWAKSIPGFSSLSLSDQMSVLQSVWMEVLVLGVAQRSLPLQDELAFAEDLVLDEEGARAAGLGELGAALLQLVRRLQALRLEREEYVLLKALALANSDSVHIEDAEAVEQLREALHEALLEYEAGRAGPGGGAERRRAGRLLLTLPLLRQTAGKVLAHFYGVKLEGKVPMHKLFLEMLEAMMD

U-266 cells = experiment: Apoptosis by Annexin V-FITC/PI flow cytometry, U-266; type: cell-based, human; conditions: 0.5 or 2.0 μM, 24 h
STAT3 = experiment: IL-6 induced p-STAT3 in MM cells adhered to Fibronectin (Western blot); type: cell-based, human; conditions: 0.5 or 2.0 μM, 24 h, 10 ng/ml IL-6, 25 μg/ml Fibronectin
[4] = tested on: RPMI-8226 human MM tumors; experiment: Tumor angiogenesis by CD-31 immunostaining in RPMI-8226 tumors in SCID mice; type: in vivo; conditions: oral treatment, vs control groups

SMILES: C[C@@H]1Cc2cc(O)ccc2[C@H]2CC[C@]3(C)/C(=C/COCCN(C)C)CC[C@H]3[C@H]12 [Compound (1)]
- Effect on IL-6 induced proliferation of MM cells [1]: inhibits IL-6 induced proliferation
- Effect on cell cycle (RPMI-8226 cells [2]): induce G2 arrest
- Induction of apoptosis, RPMI-8226 (RPMI-8226 cells [3]): induced apoptosis; also recorded: undergo apoptosis
- Binding to ERR-α (ERR-α): binds
- Induction of apoptosis, U-266 (U-266 cells): induced apoptosis; also recorded: undergo apoptosis
- Activation (phosphorylation) of STAT3 induced by IL-6 (STAT3): blocked the activation of STAT3
- Blood vessel density in tumor tissue (CD-31) [4]: drastically reduced
